Measurements taken from publication PMC3547832, “Secondary Metabolism and Development Is Mediated by LlmF Control of VeA Subcellular Localization in Aspergillus nidulans” (PLoS Genetics, 2013).

Sequences of proteins named here, by UniProt entry; tags and fusion partners are left off. A change or cut given only in a name is not applied to a line headed by its entry.
UniProt C8VTS4: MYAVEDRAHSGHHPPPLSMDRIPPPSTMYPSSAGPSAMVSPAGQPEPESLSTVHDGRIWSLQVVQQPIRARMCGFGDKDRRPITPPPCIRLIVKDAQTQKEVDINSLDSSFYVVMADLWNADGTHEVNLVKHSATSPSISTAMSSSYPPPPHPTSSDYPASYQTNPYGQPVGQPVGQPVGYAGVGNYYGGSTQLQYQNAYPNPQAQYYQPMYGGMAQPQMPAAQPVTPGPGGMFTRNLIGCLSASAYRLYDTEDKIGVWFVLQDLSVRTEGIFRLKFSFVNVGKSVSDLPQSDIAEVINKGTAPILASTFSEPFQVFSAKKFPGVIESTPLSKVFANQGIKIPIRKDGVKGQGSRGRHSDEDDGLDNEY
UniProt C8VQG9: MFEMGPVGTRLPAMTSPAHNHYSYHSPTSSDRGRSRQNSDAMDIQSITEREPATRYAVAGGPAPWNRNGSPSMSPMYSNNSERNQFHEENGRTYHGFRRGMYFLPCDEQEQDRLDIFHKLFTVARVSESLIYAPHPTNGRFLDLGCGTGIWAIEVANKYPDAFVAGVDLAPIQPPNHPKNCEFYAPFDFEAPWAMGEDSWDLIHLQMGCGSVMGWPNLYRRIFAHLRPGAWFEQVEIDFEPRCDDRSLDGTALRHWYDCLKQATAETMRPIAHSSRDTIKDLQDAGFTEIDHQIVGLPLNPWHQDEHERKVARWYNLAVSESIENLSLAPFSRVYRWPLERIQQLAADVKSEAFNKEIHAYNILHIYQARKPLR
UniProt G5EB89: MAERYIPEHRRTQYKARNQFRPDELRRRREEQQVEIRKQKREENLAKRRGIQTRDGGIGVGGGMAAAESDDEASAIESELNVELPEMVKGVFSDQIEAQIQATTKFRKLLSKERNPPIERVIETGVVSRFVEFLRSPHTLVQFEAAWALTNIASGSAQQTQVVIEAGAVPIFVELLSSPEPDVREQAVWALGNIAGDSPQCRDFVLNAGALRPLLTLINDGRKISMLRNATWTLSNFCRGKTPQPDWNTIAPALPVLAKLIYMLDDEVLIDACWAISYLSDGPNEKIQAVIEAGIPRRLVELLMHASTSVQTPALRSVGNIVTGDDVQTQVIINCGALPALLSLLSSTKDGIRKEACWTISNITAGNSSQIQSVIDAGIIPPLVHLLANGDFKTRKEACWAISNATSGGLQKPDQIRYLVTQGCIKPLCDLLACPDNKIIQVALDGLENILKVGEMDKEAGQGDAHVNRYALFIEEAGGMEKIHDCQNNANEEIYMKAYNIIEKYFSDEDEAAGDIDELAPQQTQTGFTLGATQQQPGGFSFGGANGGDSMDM

Tests used:
[1] = target: VelB (yeast two-hybrid fusion, full length) (Aspergillus nidulans) (UniProt C8VTS4); experiment: two-hybrid; directed yeast two-hybrid based on the LexA DNA binding domain (bait pTLexA, prey pGAD424) in S. cerevisiae L40; histidine growth reporter and lacZ X-gal colorimetric reporter
[2] = target: LaeA (yeast two-hybrid fusion, full length) (Aspergillus nidulans) (UniProt C8VQG9); experiment: as above
[3] = target: LaeA-like methyltransferase LlmF (yeast two-hybrid fusion, full length) (Aspergillus nidulans); experiment: as above
[4] = target: GST-LlmF (recombinant) (Aspergillus nidulans); experiment: pull-down; 10 µg purified GST tagged protein, glutathione sepharose and purified His6-VeA-S-tag, 3 hours at 4°C in PBS buffer with 1 mM DTT, pH 7.3; anti-S-tag immunoblot; both purified
[5] = target: TAP-LlmF (over-expressed in A. nidulans) (Aspergillus nidulans); experiment: pull-down; in vivo tandem affinity purification of TAP-LlmF (IgG Sepharose, TEV cleavage, calmodulin sepharose) from crude extracts of A. nidulans liquid shaking cultures; anti-S-tag immunoblot of the eluate

Molecule: importin α KapA (yeast two-hybrid fusion, full length) (from UniProt G5EB89)
- binding [1]: binds

Molecule: VeA1, truncated VeA (yeast two-hybrid fusion) (from UniProt C8VTV4)
- binding [2]: no binding

B1: VeA (yeast two-hybrid fusion, full length) (protein, UniProt C8VTV4 1-573)
chain: MATLAAPPPPLGESGNSNSVSRITREGKKITYKLNIMQQPKRARACGQGSKSHTDRRPVDPPPVIELNIFESDPHDDSNKTDITFVYNANFFLFATLEPERPIATGKLMTNQGSPVLTGVPVAGVAYLDKPNRAGYFIFPDLSVRNEGSYRFSFHLFEQIKDPKDATEGTQPMPSPVPGKLSSPQEFLEFRLEVISNPFIVYSAKKFPGLTTSTPISRMIAEQGCRVRIRRDVRMRRRGDKRTEDYDYDNERGYNNRRPDQYAGSDAYANAPERPRSTSISTNMDPYSYPSRRPSAVEYGQPIAQPYQRPMASTPAPSSTPIPAPIPMPGPVALPPSTPSPASAHAPAPPSVPLAAPPPLHTPSYQSHLSFGATQTQYPAPQLSHIPQQTTTPTHPYSPRSSISHSRNQSISEYEPSMGYPGSQTRLSAERPSYGQPSQTTSLPPLRHSLEPSVNSRSKTPSNMITSLPPIQSLSELPSTTSQPSSAIGSSPANEPGPRLWETNSMLSKRTYEESFGHDDRPLYNGMRPDSESYPGGMQRRPSYERSSLLDGPDQMAYKRANGRMVSKPATMR
- binding [3]: binds

B2: His6-VeA-S-tag (recombinant) (protein, UniProt C8VTV4 1-573)
chain: MATLAAPPPPLGESGNSNSVSRITREGKKITYKLNIMQQPKRARACGQGSKSHTDRRPVDPPPVIELNIFESDPHDDSNKTDITFVYNANFFLFATLEPERPIATGKLMTNQGSPVLTGVPVAGVAYLDKPNRAGYFIFPDLSVRNEGSYRFSFHLFEQIKDPKDATEGTQPMPSPVPGKLSSPQEFLEFRLEVISNPFIVYSAKKFPGLTTSTPISRMIAEQGCRVRIRRDVRMRRRGDKRTEDYDYDNERGYNNRRPDQYAGSDAYANAPERPRSTSISTNMDPYSYPSRRPSAVEYGQPIAQPYQRPMASTPAPSSTPIPAPIPMPGPVALPPSTPSPASAHAPAPPSVPLAAPPPLHTPSYQSHLSFGATQTQYPAPQLSHIPQQTTTPTHPYSPRSSISHSRNQSISEYEPSMGYPGSQTRLSAERPSYGQPSQTTSLPPLRHSLEPSVNSRSKTPSNMITSLPPIQSLSELPSTTSQPSSAIGSSPANEPGPRLWETNSMLSKRTYEESFGHDDRPLYNGMRPDSESYPGGMQRRPSYERSSLLDGPDQMAYKRANGRMVSKPATMR
- binding [4]: binds

B3: VeA-S-tag (in A. nidulans) (protein, UniProt C8VTV4 1-573)
chain: MATLAAPPPPLGESGNSNSVSRITREGKKITYKLNIMQQPKRARACGQGSKSHTDRRPVDPPPVIELNIFESDPHDDSNKTDITFVYNANFFLFATLEPERPIATGKLMTNQGSPVLTGVPVAGVAYLDKPNRAGYFIFPDLSVRNEGSYRFSFHLFEQIKDPKDATEGTQPMPSPVPGKLSSPQEFLEFRLEVISNPFIVYSAKKFPGLTTSTPISRMIAEQGCRVRIRRDVRMRRRGDKRTEDYDYDNERGYNNRRPDQYAGSDAYANAPERPRSTSISTNMDPYSYPSRRPSAVEYGQPIAQPYQRPMASTPAPSSTPIPAPIPMPGPVALPPSTPSPASAHAPAPPSVPLAAPPPLHTPSYQSHLSFGATQTQYPAPQLSHIPQQTTTPTHPYSPRSSISHSRNQSISEYEPSMGYPGSQTRLSAERPSYGQPSQTTSLPPLRHSLEPSVNSRSKTPSNMITSLPPIQSLSELPSTTSQPSSAIGSSPANEPGPRLWETNSMLSKRTYEESFGHDDRPLYNGMRPDSESYPGGMQRRPSYERSSLLDGPDQMAYKRANGRMVSKPATMR
- binding [5]: binds

B4: velvet domain of VeA (29-235) (yeast two-hybrid fusion) (domain or fragment, UniProt C8VTV4 29-235)
chain: KITYKLNIMQQPKRARACGQGSKSHTDRRPVDPPPVIELNIFESDPHDDSNKTDITFVYNANFFLFATLEPERPIATGKLMTNQGSPVLTGVPVAGVAYLDKPNRAGYFIFPDLSVRNEGSYRFSFHLFEQIKDPKDATEGTQPMPSPVPGKLSSPQEFLEFRLEVISNPFIVYSAKKFPGLTTSTPISRMIAEQGCRVRIRRDVRM
- binding [3]: no binding

B5: VeA N terminus (1-235 aa) (yeast two-hybrid fusion) (domain or fragment, UniProt C8VTV4 1-235)
chain: MATLAAPPPPLGESGNSNSVSRITREGKKITYKLNIMQQPKRARACGQGSKSHTDRRPVDPPPVIELNIFESDPHDDSNKTDITFVYNANFFLFATLEPERPIATGKLMTNQGSPVLTGVPVAGVAYLDKPNRAGYFIFPDLSVRNEGSYRFSFHLFEQIKDPKDATEGTQPMPSPVPGKLSSPQEFLEFRLEVISNPFIVYSAKKFPGLTTSTPISRMIAEQGCRVRIRRDVRM
- binding [3]: no binding

These are yes or no findings as the source states them, for the method shown. For some of these results: Binding calls can cover weak binding; strength is not graded here. For some of these results: Tags and fused reporters may be left off the sequences shown. For some of these results: Binding seen in cells or lysates may run through a third protein.
